Results taken from PubChem BioAssay AID504850 (National Center for Advancing Translational Sciences (NCATS), 2011).
The whole screen tested about 2,300 compounds, of which about 1,200 (52%) were called active. The set was probably picked from earlier hits. This list was built around the results that the source calls inconclusive (neither active nor inactive); the mix of calls is not that of the screen. The call rests on the fitted dose curve; in most records, active means well fitted inhibition curve with a large enough effect; inconclusive means small, poorly fitted or top-dose-only effect, or effect the other way; inactive means no such curve, though single readings can be large or run the other way. Potencies beside an inconclusive call are fits to weak or partial responses and may not hold up.

Experiment: Confirmation screen for delayed death inhibitors of the malarial parasite plastid, 48 hour incubation; further: nearly all actives have a fitted effect of over 65% in size
Settings: P. falciparum-infected erythrocytes, luciferase growth; series mostly up to 28.7 µM; activity change, negative = inhibition: at the top concentration
Summary of the method: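 Single-generation (48 h, 37 C) exposure of integrated firefly luciferase-reporter P. falciparum in red cells, 0.1% parasitemia at 2% hematocrit, Albumax-supplemented RPMI. Falling luciferase signal marks parasite growth inhibition.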
On the % scale 0 is the no-effect control and ±100 the full control effect; potency means the concentration at half of the fitted maximal effect.

SMILES | activity change, negative = inhibition | Potency
Nc1ccc(-c2c3ccc(=O)cc-3oc3cc(O)ccc23)c(C(=O)O)c1 | inactive: 3.65% | –
CN(C(=O)COc1coc(CN2CCN(c3ccccc3)CC2)cc1=O)c1ccccc1 | – | inconclusive: 12.6 µM [inhibitor, partial curve]
Cn1c(=O)n(Cc2ccccc2)c(=O)c2c1nc1n2CCN1Cc1ccco1 | – | inconclusive: 12.6 µM [inhibitor, partial curve, poor fit]
O=C(c1cccc(COc2cccc3ccccc23)c1)N1CCCC1 | – | inconclusive: 3.98 µM [activator, partial curve, poor fit]
Cc1ccccc1C1c2[nH]c3ccccc3c2CCN1Cc1cccn1-c1ncccn1 (centres undefined) | – | active: 12.6 µM
O=C1C2CCCN2C(c2ccccc2)N1c1nccs1 (centres undefined) | inactive: -20.9% | –
O=C(COC(=O)c1ccc(O)cc1O)Nc1ccc2ccccc2c1 | inactive: 34.1% | –
COc1ccc(C(=O)Nc2c(N)nc(SCC(=O)Nc3ccc(NC(C)=O)cc3)[nH]c2=O)cc1OC | – | inconclusive: 15.8 µM [inhibitor, single point]
O=C(NC(=S)Nc1nc(-c2ccccc2)cs1)c1cccnc1 | – | inconclusive: 15.8 µM [inhibitor, single point]
COc1cc(CN2CCN(CC#Cc3ccccc3)CC2CCO)cc(OC)c1 (centres undefined) | – | inconclusive: 14.1 µM [inhibitor, single point]
CC(=O)NC(=S)Nc1ccccc1C(=O)NC1CCCCC1 | – | inconclusive: 12.6 µM [inhibitor, partial curve, poor fit]
CCCCNC(=O)c1ccc(CS(=O)(=O)c2cccc(C(F)(F)F)c2)o1 | inactive: -12.9% | –
COc1cccc(C(=O)N/N=C(\C)CC(=O)Nc2ccc(N(C)C)cc2)c1 | inactive: -13.9% | –
Cc1ccc2c(c1)Sc1c(ccc3ccccc13)N2 | – | inconclusive: 14.1 µM [inhibitor, single point]
CCOC(=O)/C=C/C(=O)Nc1ccc(S(=O)(=O)N(C)c2ccccc2)cc1 | – | inconclusive: 1.78 µM [inhibitor, full curve, poor fit]
Cc1c(C)n2c(SCC(=O)Nc3ccc4c(c3)OCCO4)nnc2[nH]c1=O | – | active: 4.47 µM
Cc1ccsc1/C=N/NC(=O)c1nnn(-c2nonc2N)c1-c1ccc2c(c1)OCO2 | – | active: 1.26 µM
Nc1ccccc1C#CC(=O)c1ccccc1 | – | inconclusive: 14.1 µM [inhibitor, single point]
O=S(=O)(c1ccc(Cl)c(NC(=S)N/N=C/c2ccc(O)cc2)c1)N1CCOCC1 | – | active: 11.2 µM
O=C(NNc1nc(-c2ccccc2)cs1)c1ccco1 | – | active: 2.24 µM
Cc1c(CCO)sc[n+]1CC(=O)OCCC12CC3CC(CC(C3)C1)C2 | – | active: 8.91 µM
CCc1nn(CCCC(=O)NCc2ccccc2C)c(=O)c2cc3occc3n12 | – | inconclusive: 15.8 µM [inhibitor, single point]
COc1ccc(-c2csc(N3CCN(C(=O)c4ccco4)CC3)n2)cc1 | – | inconclusive: 15.8 µM [inhibitor, single point]
COc1cc(/C=C/C(=O)c2ccc(O)cc2)ccc1OCC#N | – | active: 12.6 µM
COc1ccc(C(=O)/C=C/C(=O)N(CC(=O)NC2CCCCC2)CC2CCCO2)c(O)c1 (centres undefined) | – | inconclusive: 14.1 µM [inhibitor, partial curve, poor fit]

Three compounds from above, ordered by formula weight, largest number first:
SMILES | activity change, negative = inhibition | Potency
COc1cccc(C(=O)N/N=C(\C)CC(=O)Nc2ccc(N(C)C)cc2)c1 | inactive: -13.9% | –
Nc1ccc(-c2c3ccc(=O)cc-3oc3cc(O)ccc23)c(C(=O)O)c1 | inactive: 3.65% | –
O=C(c1cccc(COc2cccc3ccccc23)c1)N1CCCC1 | – | inconclusive: 3.98 µM [activator, partial curve, poor fit]

Grouped by structure, the compounds so far containing two or more sulfur atoms
SMILES | activity change, negative = inhibition | Potency
O=C(NC(=S)Nc1nc(-c2ccccc2)cs1)c1cccnc1 | – | inconclusive: 15.8 µM [inhibitor, single point]
O=S(=O)(c1ccc(Cl)c(NC(=S)N/N=C/c2ccc(O)cc2)c1)N1CCOCC1 | – | active: 11.2 µM

Continued:

SMILES | activity change, negative = inhibition | Potency
O=C(C1CCC1)N1CCc2cc(S(=O)(=O)NCc3ccco3)ccc21 | inactive: 22.7% | –
COc1ccc(C(=O)NC2CC2)cc1OC1CCN(Cc2ccccc2)CC1 | – | inconclusive: 14.1 µM [inhibitor, single point]
Cc1ccc(CNC(=O)COc2ccccc2-c2ccccc2)cc1 | – | inconclusive: 22.4 µM [inhibitor, single point]
O=C(Nc1ccc(N2CCOCC2)c(Cl)c1)c1cc2ccccc2o1 | – | active: 2.51 µM
CC(=O)NC[C@@H]1CN(c2ccc(N3CCOCC3)c(F)c2)C(=O)O1 | inactive: -19.4% | –
CCS(=O)(=O)N1Cc2ccccc2CC1C(=O)Nc1cccc(OC)c1 (centres undefined) | inactive: -17.3% | –
CNc1ccc(Br)cc(C(=O)/C=C/c2cc(OC)ccc2OC)c1=O | – | inconclusive: 15.8 µM [inhibitor, partial curve, poor fit]
Cc1cc2nc3c(=O)[nH]c(=S)[nH]c3nc2cc1NC(=O)C(F)(F)F | – | inconclusive: 15.8 µM [inhibitor, single point]
CC(=O)/C(C#N)=C1\NC(=O)C(Cc2ccccc2C)S1 (centres undefined) | – | inconclusive: 5.62 µM [inhibitor, partial curve, poor fit]
COc1ccc(Cl)cc1C(=O)Nc1ccncc1 | – | inconclusive: 14.1 µM [inhibitor, single point]
Cc1ccc(S(=O)(=O)N2CCN(C(=O)CCc3c[nH]c4ccccc34)CC2)c(C)c1 | – | inconclusive: 15.8 µM [inhibitor, single point]
COc1ccc(NC(=O)CN(c2ccc(F)cc2)S(=O)(=O)c2ccccc2)c(OC)c1 | – | active: 15.8 µM
CCCCNC(=O)c1onc(CSc2cccc3ccccc23)c1C(=O)O | inactive: -3.23% | –
C=CCN(c1ccccc1)S(=O)(=O)c1cccc(C(=O)N2CC(C)CC(C)C2)c1 (centres undefined) | – | active: 14.1 µM
Cc1onc(C(=O)Nc2cccc(C(F)(F)F)c2)c1[N+](=O)[O-] | – | inconclusive: 12.6 µM [inhibitor, single point]
COc1ccccc1N1CCN(S(=O)(=O)c2ccc(-n3cnnn3)cc2)CC1 | inactive: -28% | –
Cc1ccc(NC(=O)CSc2cccc3cccnc23)c(C)c1 | inactive: -34.4% | –
Cc1occc1C(=O)NC1CCCN(Cc2ccc(CC(C)C)cc2)C1 (centres undefined) | – | active: 14.1 µM
C=CCNC(=O)c1onc(CSc2cccc(Cl)c2)c1C(=O)O | inactive: 6.09% | –
Cc1cc(C(=O)Cn2nnc3ccccc3c2=O)c(C)n1-c1ccccc1F | – | inconclusive: 1.26 µM [activator, partial curve]
Cc1cc2[nH]c(=O)c(=O)[nH]c2cc1S(=O)(=O)NC1CCCCC1C (centres undefined) | inactive: -18% | –
Cc1cccc(C)c1OCc1cc(C(=O)N(C)Cc2nc3ccccc3[nH]2)no1 | – | inconclusive: 12.6 µM [inhibitor, partial curve]
O=C(c1ccc(Cl)cc1)C(CN1CCCCC1)c1ccccc1 (centres undefined) | – | inconclusive: 15.8 µM [inhibitor, single point]
COc1cccc2cc(C(=O)NCc3ccc(Cl)cc3)c(=N)oc12 | inactive: -13.6% | –
Cc1cc(C)nc(S/C=C/C(=O)c2ccccc2F)n1 | – | inconclusive: 15.8 µM [inhibitor, partial curve, poor fit]

SMILES | activity change, negative = inhibition | Potency
CCCCN(C)CCNC(=O)c1cc2c(=O)[nH]c3ccccc3c2n1C | – | inconclusive: 15.8 µM [inhibitor, single point]
COCCn1c(SCc2csc(-c3ccccc3)n2)nc2ccccc21 | – | inconclusive: 22.4 µM [inhibitor, single point]
COc1cc(/C=N/Nc2snc(SC)c2C#N)cc(OC)c1OC | – | inconclusive: 4.47 µM [inhibitor, full curve]
CCc1c(C)sc(NC(=O)C2CC2c2ccccc2)c1C(N)=O (centres undefined) | – | inconclusive: 12.6 µM [inhibitor, partial curve, poor fit]
Cc1c(C(=O)NCc2ccc3c(c2)OCO3)oc2ccc(Br)cc12 | – | inconclusive: 14.1 µM [inhibitor, single point]
Cc1ccc(CNS(=O)(=O)c2ccc(C)s2)cc1 | inactive: 10.8% | –
CCOC(=O)c1c(-c2ccc(F)cc2)csc1NC(=O)c1c(-c2ccccc2)noc1C | – | active: 8.91 µM
Cc1c(Cl)ccc2c(C(=O)O)cc(-c3ccccc3)nc12 | inactive: 13.9% | –
O=S(=O)(c1ccc(SCCO)nc1)N1CCOCC1 | – | inconclusive: 0.251 µM [activator, full curve, poor fit]
COc1cc(OC)c(OC)cc1CN1CCN(C(=O)c2cccc3ccccc23)CC1 | – | active: 12.6 µM
COC(=O)c1cc(=O)n(Cc2cccs2)c(=Nc2ccccc2)s1 | inactive: -6.3% | –
COc1ccc(Nc2cccc(Cl)c2)c(C(=O)O)c1 | inactive: -15.3% | –
CCOc1cc(/C=C2/C(=O)ON=C2C)ccc1OCc1ccccc1 | inactive: -1.49% | –
Fc1ccc(F)c(C2=NNC(=NCC3CCCO3)SC2)c1 (centres undefined) | – | inconclusive: 3.98 µM [activator, full curve]
CCC(=O)OC1C(N(C)C)CC(C)O[C@H]1O[C@H]1[C@H](C)[C@@H](O[C@H]2CC(OC)[C@@H](O)C(C)O2)[C@H](C)C(=O)O[C@@H](CC)[C@](C)(O)[C@@H](O)[C@H](C)C(=O)[C@@H](C)C[C@]1(C)O (some centres undefined) | – | inconclusive: 12.6 µM [inhibitor, partial curve]
O=S(=O)(c1ccc(F)cc1)N1CCc2ccccc2C1 | – | inconclusive: 8.91 µM [inhibitor, partial curve, poor fit]
CCc1ccccc1Nc1nc(N)nc(COC(=O)CCNS(=O)(=O)c2ccccc2)n1 | – | active: 12.6 µM
Cc1cccc2c1NC(=O)/C2=C\C(=O)c1cccs1 | inactive: -3.23% | –
COc1ccc(Cn2c(O)c(C=Nc3ccc(O)cc3)c3ccccc3c2=O)cc1 | – | active: 10 µM
CCOc1ccc(CNC(=O)c2cc3oc4ccccc4c3n2C)cc1 | inactive: 1.62% | –
O=C(COC(=O)c1cc(-c2ccccn2)nc2ccccc12)Nc1ncc(C(F)(F)F)cc1Cl | – | inconclusive: 0.355 µM [inhibitor, full curve, poor fit]
COc1ccc(CNc2ncc(-c3ccc(Cl)cc3)n2C)c(OC)c1OC | – | inconclusive: 14.1 µM [inhibitor, single point]
CCc1ccc(-c2nc3ccc(Br)cc3c(C(=O)O)c2C)s1 | inactive: -27.6% | –
Cc1cc(NC(=O)C(C)SCC(=O)N(Cc2ccccc2)c2ccccc2)no1 (centres undefined) | – | inconclusive: 14.1 µM [inhibitor, partial curve]
